From US5382658A, “Stability-enhanced variants of parathyroid hormone” (Allelix Biopharmaceuticals Inc., priority 1992, dated 1995)

B1: [His^25 ]hPTH (protein, UniProt P01270 32-115, looked up, variant R25H)
Parathyroid hormone: SVSEIQLMHNLGKHLNSMERVEWLHKKLQDVHNFVALGAPLAPRDAGSQRPRKKEDNVLVESHEKSLGEADKADVNVLTKAKSQ
B2: [His^25 His^26 Leu^27 ]hPTH (protein, UniProt P01270 32-115, looked up, variant R25H K26H K27L)
Parathyroid hormone: SVSEIQLMHNLGKHLNSMERVEWLHHLLQDVHNFVALGAPLAPRDAGSQRPRKKEDNVLVESHEKSLGEADKADVNVLTKAKSQ

Assay: Trypsin sensitivity: trypsin or mock incubation followed by UMR-106 adenylate cyclase assay
Conditions: trypsin:PTH 1:500 (w:w), 4 hours, room temperature; for Relative Resistance (RR): RR = TS native/TS variant; for Trypsin Sensitivity (TS): ratio EC50 trypsin/EC50 mock, average of 5 experiments
Method: PTH variants having an "improved stability in the presence of trypsin" are degraded by trypsin at a rate that is slower than a similarly treated native PTH control. An assay suitable for identifying a reduced tryptic digestion rate entails a two step procedure, in which a PTH variant and a native PTH control are separately incubated with trypsin for a defined period, and are then assayed for activity in the osteosarcoma-based assay just described. Protocols suitable for assaying trypsin sensitivity are described in the literature and are outlined in the examples herein.
To measure the sensitivity of a compound (native PTH or variants) to digestion with trypsin, duplicate incubations were established for each compound in either the presence of trypsin ("Trypsin Incubation") or the absence of trypsin ("Mock Incubation"). For example, a lyophilized aliquot of PTH (or variant) was solubilized for 20 minutes at room temperature in 10 mM acetic acid at a final concentration of 1 mg/mL (50 μg PTH or variant plus 50 μL 10 mM acetic acid). Following complete solubilization in acetic acid, the sample was diluted with buffer (50 mM Tris. HCl pH 7.5, "Tris buffer", to a final concentration of 1 μg/20.82 μL). A fresh trypsin stock solution was prepared for each experiment by solubilizing trypsin in Tris buffer to a final concentration of 10 μg/mL (20 μg trypsin plus 2 mL Tris buffer). The activity of the trypsin stock solution was established spectrophometrically at the beginning and the end of each experiment by monitoring its ability to cleave the synthetic substrate N-α-benzoyl-L-arginine ethyl ether (BAEE). The appearance of the cleavage product was monitored as a function of time at 253 nm. A fresh stock solution of soybean trypsin inhibitor (SBTI) was prepared in Tris buffer at a final concentration of 10 μg/mL. The ability of the SBTI stock solution to quench the activity of the trypsin stock solution was verified by the addition of an equal weight of SBTI to trypsin in the trypsin/BAEE mixture (i.e. 5 μg trypsin in trypsin/BAEE solution plus 5 μg SBTI solution).
Parallel trypsin and mock incubations were established as follows. Identical amounts of the PTH or variant sample in Tris buffer were added to each of two tubes (416.4 μL of PTH or variant sample in Tris buffer at 1 μg/20.82 μL for a total of 20 μg of PTH or variant in each of two tubes). The trypsin incubation received an amount of trypsin stock solution in Tris buffer so that the final weight of trypsin to PTH (or variant) was 1:500 (w:w) (e.g. 0.4 μg of trypsin was added to 20 μg of PTH or variant or 4 μL of trypsin stock solution containing 10 µg/mL was added to 416.2 μL of PTH or variant solution containing 1 μg/20.82 μL). The mock incubation received Tris buffer alone lacking trypsin in an amount equal to the volume of trypsin used for the parallel incubation (e.g. 4 μL of Tris buffer added to 416.2 μL of PTH or variant solution containing 1 μg/20.82 μL). The parallel tubes were then incubated for 4 hours at room temperature and were then "quenched" by the addition of an amount of SBTI sufficient to inhibit completely the trypsin (4 μL of SBTI solution in Tris buffer at a concentration of 10 μg SBTI/mL was added to each tube). A portion of each of the incubation mixtures was used to construct a series of dilutions of PTH (or variant) to test in the UMR-106 cell adenylate cyclase assay. Particularly, the quenched incubations were diluted appropriately with assay buffer to a final concentration of 5×10^-7 M (200 μL of quenched sample described above containing PTH or variant at 5×10^-6 M was diluted 10-fold with 1800 μL assay buffer). Appropriate serial dilutions (from 5×10^-7 M to 3×10^-11 M) were made with assay buffer for the trypsin incubation samples and for the mock incubation samples. Dose-response curves were generated and the relevant EC50 values were calculated. EC50^trypsin and EC50^mock correspond to the EC50 values for the trypsin and mock incubations, respectively. […]

Molecule | Relative Resistance (RR) | Trypsin Sensitivity (TS)
human PTH(1-84) [hPTH, reference compound] | 1.0 | 12 ± 4
B1 | 2.1 ± 0.9 | 7 ± 3
B2 | 5.1 ± 0.7 | 2.4 ± 0.5
